For test [1], the target named is p53 (endogenous, mouse) (mouse (endogenous in mouse liver, NIH3T3 and MEFs)) (UniProt P02340). Put plainly: co-IP; total extracts of WT and Zbtb7c-KO MEFs; lysis buffer 20 mM Tris-HCl pH 7.5, 150 mM NaCl, 10% glycerol, 1% Triton X-100; anti-p53 antibody overnight at 4 °C, protein A-Sepharose beads; western blot. (In general: A western blot detects proteins with antibodies after separation by electrophoresis.)

Protein sequences, listed by entry. Tags and fused reporters are not part of them.
UniProt P02340: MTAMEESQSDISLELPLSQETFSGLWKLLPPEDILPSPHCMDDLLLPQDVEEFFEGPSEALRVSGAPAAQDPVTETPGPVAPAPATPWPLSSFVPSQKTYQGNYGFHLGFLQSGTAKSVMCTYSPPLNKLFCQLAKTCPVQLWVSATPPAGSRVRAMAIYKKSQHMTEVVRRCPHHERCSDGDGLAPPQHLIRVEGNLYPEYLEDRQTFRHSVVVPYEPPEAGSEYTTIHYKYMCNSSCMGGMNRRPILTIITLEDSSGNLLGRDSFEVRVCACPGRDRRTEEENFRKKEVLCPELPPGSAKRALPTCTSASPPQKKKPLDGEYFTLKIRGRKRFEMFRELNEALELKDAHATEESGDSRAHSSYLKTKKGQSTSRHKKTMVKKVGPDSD

For test [2] the target is unchanged. In words: co-IP; NIH3T3 lysates with or without ectopic Zbtb7c; lysis buffer 20 mM Tris-HCl pH 7.5, 150 mM NaCl, 10% glycerol, 1% Triton X-100; antibody (Zbtb7c, p53 or Myc) overnight at 4 °C, protein A-Sepharose beads; western blot.
The target is the same in test [3]. In words: co-IP; liver extracts of mice fed chow or HFD; lysis buffer 20 mM Tris-HCl pH 7.5, 150 mM NaCl, 10% glycerol, 1% Triton X-100; anti-p53 antibody overnight at 4 °C, protein A/G PLUS-Agarose beads; western blot.

These are yes or no findings as the source states them, for the method shown. In cells and extracts the contact can be indirect. Some entries that bind do so weakly or less than the wild type. For some of these results: Tags and fused reporters may be left off the sequences shown.

B1: mSin3A (protein, UniProt Q60520 1-1274)
chain: MKRRLDDQESPVYAAQQRRIPGSTEAFSHQHRVLAPAPPVYEAVSETMQSATGIQYSVAPNYQVSAVPQSSGSHGPAIAAVHSSHHHPTAVQPHGGQVVQSHAHPAPPVAPVQGQQQFQRLKVEDALSYLDQVKLQFGSQPQVYNDFLDIMKEFKSQSIDTPGVISRVSQLFKGHPDLIMGFNTFLPPGYKIEVQTNDMVNVTTPGQVHQIPTHGIQPQPQPPPQHPSQPSSQSAPTPAQPAPQPTAAKVSKPSQLQAHTPASQQTPPLPPYASPRSPPVQPHTPVTISLGTAPSLQNNQPVEFNHAINYVNKIKNRFQGQPDIYKAFLEILHTYQKEQRNAKEAGGNYTPALTEQEVYAQVARLFKNQEDLLSEFGQFLPDANSSVLLSKTTAEKVDSVRNDHGGTVKKPQLNNKPQRPSQNGCQIRRHSGTGATPPVKKKPKLMSLKESSMADASKHGVGTESLFFDKVRKALRSAEAYENFLRCLVIFNQEVISRAELVQLVSPFLGKFPELFNWFKNFLGYKESVHLESFPKERATEGIAMEIDYASCKRLGSSYRALPKSYQQPKCTGRTPLCKEVLNDTWVSFPSWSEDSTFVSSKKTQYEEHIYRCEDERFELDVVLETNLATIRVLEAIQKKLSRLSAEEQAKFRLDNTLGGTSEVIHRKALQRIYADKAADIIDGLRKNPSIAVPIVLKRLKMKEEEWREAQRGFNKVWREQNEKYYLKSLDHQGINFKQNDTKVLRSKSLLNEIESIYDERQEQATEENAGVPVGPHLSLAYEDKQILEDAAALIIHHVKRQTGIQKEDKYKIKQIMHHFIPDLLFAQRGDLSDVEEEEEEEMDVDEATGAPKKHNGVGGSPPKSKLLFSNTAAQKLRGMDEVYNLFYVNNNWYIFMRLHQILCLRLLRICSQAERQIEEENREREWEREVLGIKRDKSDSPAIQLRLKEPMDVDVEDYYPAFLDMVRSLLDGNIDSSQYEDSLREMFTIHAYIAFTMDKLIQSIVRQLQHIVSDEVCVQVTDLYLAENNNGATGGQLNSQTSRSLLESAYQRKAEQLMSDENCFKLMFIQSQGQVQLTVELLDTEEENSDDPVEAERWSDYVERYMSSDTTSPELREHLAQKPVFLPRNLRRIRKCQRGREQQEKEGKEGNSKKTMENVESLDKLECRFKLNSYKMVYVIKSEDYMYRRTALLRAHQSHERVSKRLHQRFQAWVDKWTKEHVPREMAAETSKWLMGEGLEGLVPCTTTCDTETLHFVSINKYRVKYGTVFKAP
As for B1, the binding result in test [1] and in test [2] was “binds” in each case.

B2: Zbtb7c (endogenous, mouse liver) (protein, UniProt Q8VCZ7 1-619)
chain: MANDIDELIGIPFPNHSSEVLCSLNEQRHAGLLCDVLLVVQEQEYRTHRSVLAACSKYFKKLFTAGSLASQPYVYEIDFVQPEALAAILEFAYTSTLTITASNVKHILNAARMLEIQCIVNVCLEIMEPGGSVGEEDDKEEEDEDDDDEDEDDEEEEEEEEEEEEDDPEDFADQENLPDPQDITCPQSPSKTDHLTEKDYSDTPRDFPDSFQPGSPGHLGVIRDFSIESLLRENLYPKANIPDRRPSLSPFAPEFFPHLWPGGFGAFAQLPEQPMDSGPLDLVIKNRKIKEEDKEELAPPPPPPFSSDFFKDMFPDLPGGPLGPIKAENDYGAYLNFLSATHLGSLFPPWPLVEERKLKPKASQQCPICHKVIMGAGKLPRHMRTHTGEKPYMCSICEVRFTRQDKLKIHMRKHTGERPYLCIHCNAKFVHNYDLKNHMRIHTGVRPYQCEFCYKSFTRSDHLHRHIKRQSCRMARPRRGRKPAAWRAASLLFGPGGPSADKAAFVMPPALGDVGGHLGGTAVCLPGPSPAKHFLASPKGTLSLQELERQFEETQMKLFGRAQLEAERNAGGLLALALAENVAATRPYFPLPDPWAAGLAGLPGLTGLNHVASMSEANN
As to B2, the binding entry in test [3] is on record as “binds”.

B3: Myc-tagged Zbtb7c (protein, UniProt Q8VCZ7 1-619)
chain: MANDIDELIGIPFPNHSSEVLCSLNEQRHAGLLCDVLLVVQEQEYRTHRSVLAACSKYFKKLFTAGSLASQPYVYEIDFVQPEALAAILEFAYTSTLTITASNVKHILNAARMLEIQCIVNVCLEIMEPGGSVGEEDDKEEEDEDDDDEDEDDEEEEEEEEEEEEDDPEDFADQENLPDPQDITCPQSPSKTDHLTEKDYSDTPRDFPDSFQPGSPGHLGVIRDFSIESLLRENLYPKANIPDRRPSLSPFAPEFFPHLWPGGFGAFAQLPEQPMDSGPLDLVIKNRKIKEEDKEELAPPPPPPFSSDFFKDMFPDLPGGPLGPIKAENDYGAYLNFLSATHLGSLFPPWPLVEERKLKPKASQQCPICHKVIMGAGKLPRHMRTHTGEKPYMCSICEVRFTRQDKLKIHMRKHTGERPYLCIHCNAKFVHNYDLKNHMRIHTGVRPYQCEFCYKSFTRSDHLHRHIKRQSCRMARPRRGRKPAAWRAASLLFGPGGPSADKAAFVMPPALGDVGGHLGGTAVCLPGPSPAKHFLASPKGTLSLQELERQFEETQMKLFGRAQLEAERNAGGLLALALAENVAATRPYFPLPDPWAAGLAGLPGLTGLNHVASMSEANN
In the case of B3, in test [2], the binding entry is on record as “binds”.

Source of the values: article PMC8178412.
